Assays:
Diet-Induced Obese Mice = experiment: Combination of BAL-1480 and tirzepatide in obese mice (Example 6); format: in vivo
From the text: To measure the effect of another APJ agonist, BAL-1480, compound 13 as described by Narayanan et al. in J. Med. Chem. 2021, 64, 3006-3025, on weight loss or body composition in Diet-Induced Obese Mice by GLP-1 receptor agonist tirzepatide.
Measurement used and justifications include: body weight, food intake, water intake, non-fasted blood glucose, and body composition by Echo-MRI.
C57BL/6 obese male mice from Jax and housed to 9-months old were fed with a lean control diet D12450B (10 kcal % fat) and a diet-induced obesity (DIO) diet D12492 (60 kcal % fat) (Research Diets, Inc.).
Male DIO mice were acclimated to a single house cage for two weeks. Body weight, morning non-fasted blood glucose, and body composition were measured for randomization. Target DIO weight range at randomization 51.4-67.5 g. After randomization, mice were given treatment as the following groups (All groups were paired with relative dosing s.c. vehicle (20 mM citrate buffer at pH 7.0, 4 mL/kg) or drinking water with addition of 5 mM Sucralose (5 mM Sucralose, pH 3) to insure water consumption despite possible taste alterations from drug).
Study groups • 0. Lean ctrl, n=7 • 1. DIO+VEH (vehicle), n=7 • 2. […]
Body weight, food intake, water intake, body composition and morning non-fasted blood glucose were measured during the entire study. […]
Data were expressed as mean±SEM and statistically analyzed by 1-way or 2-way ANOVA

[1] = system: Diet-Induced Obese (DIO) mice; experiment: Pilot study of BGE-105 in aged DIO mice treated with tirzepatide (Example 2); format: in vivo

Row | Molecule | Rectal temperature (Diet-Induced Obese Mice; day 15, BAL-1480 monotherapy vs VEH group) | Water consumption (Diet-Induced Obese Mice; entire curve up to 18 days, BAL-1480 groups vs tirzepatide group) | Food intake ([1]; beginning of the study, recovered after about 2 weeks) | Daily water intake ([1]; tirzepatide 30 and 10 nmol/kg vs 3 nmol/kg groups)
1 | COc1cccc(OC)c1-c1cc(C(=O)N[C@@H](CCN2CCCCC2)CC(=O)NC2CCC2)nn1C1CCCC1 [BAL-1480] | dose-dependent increase of body temperature | significantly lower than the tirzepatide group | – | –
2 | tirzepatide | – | – | lower food intake at the beginning of the study | lower water intake
